PubChem BioAssay AID1347075 (National Center for Advancing Translational Sciences (NCATS), 2019)
The whole screen tested about 400,000 compounds, of which about 5,500 (1.4%) were called active. Inconclusive means that the source gave no clear call. Such entries were picked first, then a sample of the others. Calls come from the whole dose curve; as a rule, active = well fitted cell-killing curve with a large enough effect; inconclusive = small, poorly fitted or top-dose-only effect, or effect the other way; inactive = flat fitted curve, though single readings scatter. Potencies of inconclusive entries are doubtful fits and often do not repeat.

experiment: qHTS assay for MDR1-selective chemotherapeutics: Primary screen using the parental adenocarcinoma cell KB-3-1; details: KB-3-1 viability, CellTiter-Glo ATP luminescence, 72 h; activity change, negative = cytotoxic: at 46.1 µM (top of the series); note: nearly all actives have a fitted effect of over 60% in size
How it was run: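 Using CellTiter-Glo luminescence, growth of non-resistant KB-3-1 adenocarcinoma cells is assessed 72 h after pin-tool compound addition at 37 °C. Normalized responses across the concentration series yield fitted curves.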
% is set by controls: 0 for no effect and ±100 for the full control effect; potency is the fitted concentration of half-maximal effect.

Q: Which Potency does the source give for `O=C(N/N=C\c1cccc(Cl)c1)c1n[nH]c2c1CCCC2` here?
A: inactive

Q: For `CCc1ccc(C2CC(=O)c3c([nH]c(C(=O)OC4CCCCCC4)c3C)C2)cc1` (stereo unspecified), which Potency is on record?
A: inconclusive: 0.0461 µM [rising, full curve]

Q: Which Potency does the source give for `C=C1C(=O)C23CCC4C(C)(C(=O)OC)CCCC4(C)C2CCC1(O)C3` (stereo unspecified) here?
A: inconclusive: 29.1 µM [cytotoxic, single point]

Q: For `C=CCSc1nnc(NC(=O)CSCc2c(C)noc2C)s1`, which Potency is on record?
A: inconclusive: 32.6 µM [cytotoxic, single point]

Q: Which Potency does the source give for `COC(=O)C1C(O)=C(C(C)=Nc2cccc3ccccc23)C(=O)CC1(C)C` (stereo unspecified) here?
A: inactive

Q: With `Cc1ccc2ccc(C(Nc3ccccc3)c3ccc(Cl)cc3)c(O)c2n1` (stereo unspecified) as the compound, how does the Potency read?
A: inconclusive: 5.8 µM [cytotoxic, full curve]

Q: For `COc1ccc(CCNS(=O)(=O)c2cc3c4c(c2)CC(=O)N4CCC3)cc1`, which Potency is on record?
A: inconclusive: 29.1 µM [rising, single point]

Q: With `O=C1CCCc2cc(S(=O)(=O)N3CCCC(C(=O)NCc4ccccc4Cl)C3)ccc2N1` (stereo unspecified) as the compound, how does the Potency read?
A: inconclusive: 13 µM [cytotoxic, partial curve, poor fit]

Q: Which Potency does the source give for `CSc1nc(N)nc(SCC(=O)OC(C)C)c1C#N` here?
A: inactive

Q: Which Potency does the source give for `COc1cc(/C=N/NC(=O)c2nnn(-c3nonc3N)c2C(C)C)ccc1OCc1ccc(F)cc1` here?
A: inconclusive: 23.1 µM [cytotoxic, partial curve, poor fit]

Q: Which Potency does the source give for `CCCCCC(=O)N1C[C@@H](O)[C@H](n2cc(C3CC3)nn2)C[C@@H]1c1ccc(C)cc1` here?
A: inactive

Q: For `CCOC(=O)N=Nc1c(O)n(CC(=O)OC)c2ccccc12`, which Potency is on record?
A: inactive

Q: Which Potency does the source give for `COc1cc(CN2CCN(c3cccc(Cl)c3)CC2)cc(OC)c1OC` here?
A: active: 3.66 µM

Q: With `COC(=O)[C@]12CCCCC=C1N(Cc1ccc(Cl)cc1Cl)C(=O)[C@H](CC(=O)NCCCN1CCCC1=O)C2` as the compound, how does the Potency read?
A: inactive

Q: Which Potency does the source give for `O=C(/C=C/c1ccco1)N1CCCC(c2ccccc2)C1` (stereo unspecified) here?
A: inactive

Q: Which Potency does the source give for `Cc1cc(C(=O)COC(=O)c2ccc(N)c([N+](=O)[O-])c2)c(C)n1-c1ccc2c(c1)OCO2` here?
A: inconclusive: 29.1 µM [cytotoxic, single point]

Q: Which Potency does the source give for `Cc1ccccc1N1CCN(Cc2nc(Cc3ccccc3)no2)CC1` here?
A: inactive

Q: For `Cc1ccc(CN2C(=O)C(CC(C)C)Nc3ncnc(N4CCN(c5ccccc5)CC4)c32)cc1` (stereo unspecified), which activity change, negative = cytotoxic is on record?
A: inconclusive: -71.8%

Q: For `COc1ccc(/C=C/C(=O)c2c(O)c(OC)c3occc3c2OC)cc1`, which Potency is on record?
A: inconclusive: 16.4 µM [cytotoxic, single point]

Q: Which Potency does the source give for `CCn1c(=O)c(C(=O)NCc2ccccc2Cl)c(O)c2ccccc21` here?
A: inconclusive: 20.6 µM [cytotoxic, single point]

Q: With `CCc1nnc(N/N=C/c2ccc(O)c(OC)c2)n1N` as the compound, how does the Potency read?
A: inactive

Q: With `CC1(Br)C(Sc2ccccc2[N+](=O)[O-])=Nc2ccccc21` (stereo unspecified) as the compound, how does the Potency read?
A: inconclusive: 20.6 µM [cytotoxic, single point]

Q: With `COc1ccc(C(=O)Nc2nncs2)cc1S(=O)(=O)N1CCOCC1` as the compound, how does the Potency read?
A: inconclusive: 4.11 µM [rising, full curve, poor fit]

Q: With `CCc1ccc2c(c1)C1(NN=C(c3ccccc3)S1)C(=O)N2` (stereo unspecified) as the compound, how does the Potency read?
A: inconclusive: 3.66 µM [cytotoxic, full curve]

Q: With `CCCCCCCCCCCCCCCC[N+](C)(C)CC` as the compound, how does the Potency read?
A: inconclusive: 2.91 µM [cytotoxic, partial curve, poor fit]

Q: Which Potency does the source give for `C[C@H](CO)N1C[C@H](C)[C@@H](CN(C)Cc2ccc(Cl)c(Cl)c2)Oc2c(NC(=O)CCC(F)(F)F)cccc2C1=O` here?
A: inconclusive: 23.1 µM [cytotoxic, single point]

Q: For `Cc1cc(C)n(-c2nnc(NC(C)(C)C)nn2)n1`, which Potency is on record?
A: inactive

Q: With `O=C(NC(=S)N1CCN(Cc2ccc3c(c2)OCO3)CC1)c1cccc(Br)c1` as the compound, how does the Potency read?
A: inconclusive: 14.6 µM [cytotoxic, partial curve, poor fit]

Q: For `CC(C)c1ccc(-c2nn(-c3ccccc3)cc2C2C(C#N)=C(N)OC3=C2C(=O)CC(C)(C)C3)cc1` (stereo unspecified), which Potency is on record?
A: inconclusive: 20.6 µM [cytotoxic, single point]

Q: With `CC1CCCN(c2nc3ccccc3nc2C(C#N)S(=O)(=O)c2ccccc2)C1` (stereo unspecified) as the compound, how does the Potency read?
A: inconclusive: 20.6 µM [cytotoxic, single point]

Q: With `O=C(NCCCN1CCOCC1)c1cc(Cl)ccc1OCc1ccccc1` as the compound, how does the Potency read?
A: inactive

Q: Which Potency does the source give for `COc1ccc(-c2cc(NC=O)c3ncc(-c4cccc(C(=O)N(C)C)c4)n3c2)c(OC)c1` here?
A: inactive

Q: With `COc1ccc(CNCCc2ccc(Cl)cc2)cc1OCc1ccccc1` as the compound, how does the Potency read?
A: inconclusive: 13 µM [cytotoxic, single point]

Q: For `Cc1cc(/C=N/NC(=O)c2nn(C)cc2Cl)c(C)n1-c1cccc(Br)c1`, which Potency is on record?
A: inconclusive: 23.1 µM [rising, partial curve, poor fit]

Q: With `COc1ccc(S(=O)(=O)Nc2cc(Cl)ccc2OC)cc1` as the compound, how does the Potency read?
A: active: 3.66 µM

Q: Which Potency does the source give for `COc1ccccc1C(=O)Nc1ccc2c(c1)nc1n2CCSC1` here?
A: inconclusive: 0.082 µM [rising, full curve]

Q: Which Potency does the source give for `O=C(NC(Nc1nc2ccc([N+](=O)[O-])cc2s1)(C(F)(F)F)C(F)(F)F)c1cccnc1` here?
A: active: 11.6 µM

Q: For `CC1=CC(=NOC(=O)/C=C/c2ccccc2)C=C(C)C1=O`, which Potency is on record?
A: inconclusive: 29.1 µM [cytotoxic, single point]

Q: For `CCC(Cc1ccccc1)NS(=O)(=O)c1ccc2c(c1)NC(=O)C(C)S2` (stereo unspecified), which Potency is on record?
A: inconclusive: 29.1 µM [cytotoxic, single point]

Q: Which Potency does the source give for `O=[N+]([O-])c1ccc(/C=C/c2ccnc3ccccc23)c([N+](=O)[O-])c1` here?
A: inactive

Q: For `COCCn1c(=O)[nH]c(=O)c2c(C(F)(F)F)cc(-c3cccs3)nc21`, which Potency is on record?
A: inactive

Q: Which Potency does the source give for `Cc1n[nH]c(C)c1CCCOc1ccccc1` here?
A: inactive

Q: Which Potency does the source give for `COc1ccc2cc(C(=O)O)n(CC(=O)c3ccccc3)c2c1` here?
A: inconclusive: 0.0184 µM [rising, full curve]

Q: Which Potency does the source give for `COc1cc(C(=O)NC(=S)NCc2ccncc2)cc(OC)c1OC` here?
A: inactive

Q: With `CCCCNC(=O)C1c2ccccc2OCC(=O)N1CCOC` (stereo unspecified) as the compound, how does the Potency read?
A: inactive

Q: With `C=C(C)C1Cc2c(C)nn(-c3nc(C)cc(C)n3)c2C1` (stereo unspecified) as the compound, how does the Potency read?
A: inconclusive: 23.1 µM [cytotoxic, single point]

Q: Which Potency does the source give for `CCOc1ccc2cc(C#N)c(SCC(=O)N3CCC(C)CC3)nc2c1` here?
A: inactive

Q: Which Potency does the source give for `CC(=O)N1CCCC1c1nc2ccccc2n1Cc1c(F)cccc1Cl` (stereo unspecified) here?
A: inactive

Q: Which Potency does the source give for `Cc1cccc(-n2ncc3c(N4CCOCC4)ncnc32)c1` here?
A: inactive

Q: Which Potency does the source give for `CCCCCCN1CCN(C2CN(Cc3ccc(F)cc3)S(=O)(=O)C2)CC1` (stereo unspecified) here?
A: inconclusive: 29.1 µM [cytotoxic, single point]

Q: With `COc1cccc(-c2ccc3c(c2)O[C@H](CN(C)C(=O)c2ccccc2F)[C@H](C)CN([C@H](C)CO)S3(=O)=O)c1` as the compound, how does the Potency read?
A: inconclusive: 20.6 µM [cytotoxic, single point]

Q: With `COc1ccc(C(=O)c2sc(NC(C)C)nc2N)cc1OC` as the compound, how does the Potency read?
A: inconclusive: 29.1 µM [cytotoxic, single point]

Q: For `O=C(c1cc([N+](=O)[O-])ccc1N1CCOCC1)N1CCCCC1`, which Potency is on record?
A: inconclusive: 0.461 µM [cytotoxic, full curve]

Q: With `COc1ccc2c(c1)C(C)CC(C)(C)N2C(=O)CSc1nc2ccccc2s1` (stereo unspecified) as the compound, how does the Potency read?
A: inconclusive: 18.4 µM [cytotoxic, single point]

Q: With `COc1ccc(C(=O)CSc2nc3cc(C(=O)NC4CCCC4)ccc3c(=O)n2CC2CCCO2)cc1` (stereo unspecified) as the compound, how does the Potency read?
A: inactive

Q: Which Potency does the source give for `CC1=CC(C)(C)N=C(Nc2nc(C)c3cc(C)cc(C)c3n2)N1` here?
A: inconclusive: 29.1 µM [cytotoxic, single point]

Q: For `Cc1cccc(NC(=O)Cn2c(=O)n(CCc3ccccc3)c(=O)c3ccccc32)c1`, which Potency is on record?
A: inactive

Q: Which Potency does the source give for `COc1cc2c(cc1OC)CN(C(=O)c1ccc(-c3ccccc3)cc1)CC2` here?
A: inactive

Q: With `O=C1NC[C@H](CCCCN2CCN(Cc3ccccc3)C(=O)C2=O)N(Cc2ccccc2)C1=O` as the compound, how does the Potency read?
A: inactive

Q: For `C=Cc1ccc(Cn2c(C)c(C(=O)NCc3ccc4c(c3)OCCO4)sc2=O)cc1`, which Potency is on record?
A: inconclusive: 29.1 µM [cytotoxic, single point]

Q: For `CCCOc1cccc(C(=O)Nc2cc(-c3nc4ccccc4[nH]3)ccc2C)c1`, which Potency is on record?
A: inconclusive: 23.1 µM [cytotoxic, single point]

Q: Which Potency does the source give for `Cc1cccc(C(=O)O/N=C(\N)Cc2ccc([N+](=O)[O-])cc2)c1` here?
A: inconclusive: 23.1 µM [cytotoxic, single point]

Q: Which Potency does the source give for `Cc1ccc(/C(=N\O)c2oc3c(C)c4oc(=O)cc(C)c4cc3c2C)cc1` here?
A: inconclusive: 18.4 µM [cytotoxic, single point]

Q: For `COc1ccccc1C(=O)C1CCCN(C(=O)c2snnc2C)C1` (stereo unspecified), which Potency is on record?
A: inconclusive: 32.6 µM [rising, single point]

Q: For `COc1ccc(CN2CCc3cc(OC)c(OC)cc3C2)cc1O`, which Potency is on record?
A: inconclusive: 25.9 µM [cytotoxic, single point]

Q: With `Cc1ccc(Cl)cc1N1CCN(C(=O)c2cc3c(=O)n(C)c4ccccc4c3n2C)CC1` as the compound, how does the Potency read?
A: inconclusive: 5.17 µM [cytotoxic, partial curve]

Q: With `Cc1ccc(-c2cc(C(F)F)n3ncc(C(=O)Nc4c(C)nn(Cc5ccccc5Cl)c4C)c3n2)cc1` as the compound, how does the Potency read?
A: active: 16.4 µM

Q: With `CCN(CC)C(=O)c1sc(NC(=O)c2ccoc2C)c(C(=O)OC)c1C` as the compound, how does the Potency read?
A: inactive

Q: For `C=CS(=O)c1sc(Cl)c(N2CCOCC2)c1[N+](=O)[O-]` (stereo unspecified), which Potency is on record?
A: inconclusive: 29.1 µM [cytotoxic, single point]

Q: With `CC(C)(C)n1nnnc1C(c1cc2cc3c(cc2[nH]c1=O)OCO3)N1CCN(c2ccccc2)CC1` (stereo unspecified) as the compound, how does the Potency read?
A: inactive

Q: With `CCOc1ccccc1NC(=O)CSc1nc2ccccc2nc1Cc1ccc(C)cc1` as the compound, how does the Potency read?
A: inactive
